{"sequences": {"note": "By UniProt entry, the sequences of proteins in these tests, tags left out. Residues count along the entry.", "UniProt P16410, 36-223": "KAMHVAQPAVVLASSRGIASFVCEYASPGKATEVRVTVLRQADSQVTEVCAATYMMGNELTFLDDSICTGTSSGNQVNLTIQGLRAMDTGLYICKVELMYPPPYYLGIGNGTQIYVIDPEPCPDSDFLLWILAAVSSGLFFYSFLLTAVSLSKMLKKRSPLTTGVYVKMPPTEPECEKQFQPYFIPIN"}, "source": "patent US20240182909", "key": {"[1]": {"biological_target": "CTLA4 on IL-2 activated T cells (Homo sapiens) (UniProt P16410)", "assay": "flow cytometry", "details": "deoxyuridine (dU) in place of every T; IL-2 (20 ng/ml) activated CD8 T cells and CD3+ T cells; SA-APC detection; protein on the cell surface; label: biotin; single-stranded DNA"}, "D-dimer": {"system": "D-dimer", "assay": "ELONA", "details": "deoxyuridine (dU) in place of every T; D-dimer-coated plate; purified native protein; label: biotin; single-stranded DNA"}, "[2]": {"biological_target": "CTLA4 on IL-2 activated T cells (Homo sapiens) (UniProt P16410)", "assay": "activity in cells", "details": "deoxyuridine (dU) in place of every T; significantly enhanced CD8 T cell cytolysis of HCT 15 and COLO 205 cells (LDH assay); protein on the cell surface; single-stranded DNA; dose not given here"}}, "note": "For part of these data: At least one result comes from cells or an extract, where the contact may be indirect. For part of these data: The exact form of at least one protein or probe is not confirmed. For part of these data: Negatives hold for the conditions tested.", "data": [{"sequence": "ACACTTTTCCCCCACCTGATCCTCAGTTCCGGAAAAGTGT [ctla4_R2_13]", "values": [{"measurement": "binding result", "setting": "[1]", "result": "binds"}, {"measurement": "binding result", "setting": "D-dimer", "result": "no binding"}, {"measurement": "functional effect of the aptamer", "setting": "[2]", "result": "active"}]}]}
